Experimental data as given in doi:10.1101/2020.09.02.280198.
Substitutions are numbered along the chain they refer to. No constants are given. Whether binding was seen depends on the method and setting. Binding seen in cells or lysates may run through a third protein. Some results given as binding are weak or reduced against the parent protein; the word gives no strength. Sequences can lack the tags named with a protein.

Experiments:
Assay in all cases: co-IP
[1] = target: T1, FLAG-tagged dyskerin A481X (human) (UniProt O60832)
T1 sequence: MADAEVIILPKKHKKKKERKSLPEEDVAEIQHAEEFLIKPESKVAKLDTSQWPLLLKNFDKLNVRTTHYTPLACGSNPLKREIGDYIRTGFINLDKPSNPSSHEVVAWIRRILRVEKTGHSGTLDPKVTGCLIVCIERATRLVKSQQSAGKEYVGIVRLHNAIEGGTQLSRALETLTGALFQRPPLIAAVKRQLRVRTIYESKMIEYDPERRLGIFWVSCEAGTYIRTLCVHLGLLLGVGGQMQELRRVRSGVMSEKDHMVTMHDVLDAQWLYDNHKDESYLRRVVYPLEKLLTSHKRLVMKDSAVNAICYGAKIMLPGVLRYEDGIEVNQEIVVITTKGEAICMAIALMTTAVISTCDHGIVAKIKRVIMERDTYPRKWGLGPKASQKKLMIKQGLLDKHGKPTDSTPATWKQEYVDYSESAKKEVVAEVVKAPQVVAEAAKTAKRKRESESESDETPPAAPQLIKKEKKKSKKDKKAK

[2] = target: T2, FLAG-tagged dyskerin K446X (human) (UniProt O60832)
T2 sequence: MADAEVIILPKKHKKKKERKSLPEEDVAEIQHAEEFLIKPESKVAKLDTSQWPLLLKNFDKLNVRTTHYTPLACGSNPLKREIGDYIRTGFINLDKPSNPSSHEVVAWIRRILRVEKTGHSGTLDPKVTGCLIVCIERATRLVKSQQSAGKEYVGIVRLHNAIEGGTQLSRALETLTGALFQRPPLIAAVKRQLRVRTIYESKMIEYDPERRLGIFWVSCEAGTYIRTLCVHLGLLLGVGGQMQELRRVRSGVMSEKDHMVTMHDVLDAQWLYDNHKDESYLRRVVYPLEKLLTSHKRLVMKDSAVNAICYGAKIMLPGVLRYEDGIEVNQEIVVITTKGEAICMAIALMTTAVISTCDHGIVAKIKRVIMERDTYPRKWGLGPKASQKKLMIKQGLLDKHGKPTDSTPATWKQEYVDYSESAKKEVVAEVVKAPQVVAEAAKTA

[3] = target: T3, FLAG-tagged dyskerin K467/468R (human) (UniProt O60832)
T3 sequence: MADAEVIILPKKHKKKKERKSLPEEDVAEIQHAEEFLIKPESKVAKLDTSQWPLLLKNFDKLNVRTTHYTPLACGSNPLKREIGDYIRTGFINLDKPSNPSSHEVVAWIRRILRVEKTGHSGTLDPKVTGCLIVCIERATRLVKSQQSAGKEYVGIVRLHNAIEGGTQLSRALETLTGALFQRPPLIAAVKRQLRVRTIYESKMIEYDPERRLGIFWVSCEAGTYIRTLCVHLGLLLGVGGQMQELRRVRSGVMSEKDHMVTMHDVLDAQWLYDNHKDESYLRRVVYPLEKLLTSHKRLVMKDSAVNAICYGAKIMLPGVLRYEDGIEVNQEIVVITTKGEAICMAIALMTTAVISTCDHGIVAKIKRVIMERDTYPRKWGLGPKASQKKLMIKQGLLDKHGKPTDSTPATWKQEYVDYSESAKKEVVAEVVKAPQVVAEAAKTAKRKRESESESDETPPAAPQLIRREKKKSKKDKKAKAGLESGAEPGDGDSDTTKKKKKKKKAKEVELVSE

[4] = target: T4, FLAG-tagged dyskerin K467R (human) (UniProt O60832)
T4 sequence: T3 sequence with R468K

[5] = target: T5, FLAG-tagged dyskerin K468R (human) (UniProt O60832)
T5 sequence: T3 sequence with R467K

[6] = target: T6, FLAG-tagged wildtype dyskerin (human) (UniProt O60832)
T6 sequence: T3 sequence with R467K, R468K

Measured: binding

B1: endogenous NAF1 (protein, UniProt Q96HR8 1-494)
chain: MEVVEAAAAQLETLKFNGTDFGVGEGPAAPSPGSAPVPGTQPPLQSFEGSPDAGQTVEVKPAGEQPLQPVLNAVAAGTPAPQPQPPAESPACGDCVTSPGAAEPARAPDSLETSDSDSDSDSETDSDSSSSSSSSSSSSSSSSSSCISLPPVLSDGDDDLQIEKENKNFPLKTKDELLLNELPSVEELTIILPEDIELKPLGMVSSIIEQLVIIESMTNLPPVNEETVIFKSDRQAAGKIFEIFGPVAHPFYVLRFNSSDHIESKGIKIKETMYFAPSMKDFTQYIFTEKLKQDKGSDASWKNDQEPPPEALDFSDDEKEKEAKQRKKSQIQGRKKLKSEFNEPGEDFTEVHQNWNAHSSASEHAKGYRNREFTRGFSRARYPRSCHGRPPPQHFYNSEHMVSQETSGFPSQRQNNPIMPQYPFPLPVFDMHNFPLRPPPPPPPPPVNMGWATPNMAAHPLLNLPYSLPPPPPPPPLPPPPSSGDSNSHFGPYY
binds: [1] | [2] | [3] | [4] | [5] | [6]

B2: endogenous NHP2 (protein, UniProt Q9NX24 1-153)
chain: MTKIKADPDGPEAQAEACSGERTYQELLVNQNPIAQPLASRRLTRKLYKCIKKAVKQKQIRRGVKEVQKFVNKGEKGIMVLAGDTLPIEVYCHLPVMCEDRNLPYVYIPSKTDLGAAAGSKRPTCVIMVKPHEEYQEAYDECLEEVQSLPLPL
binds: [1] | [2] | [3] | [4] | [5] | [6]
